Data published in the supplement of paper PMC8426693.
Some of the results follow. Repeats are few or missing, and single values can be far off.

What was measured:
Assay in all cases: 1H chemical shift perturbation upon RNA addition; higher = stronger binding
Conditions in all cases: RNA concentration 10 µM; fragment concentration 200 µM; 293 K
[1] = system: SARS-CoV-2 3'-UTR RNA
[2] = system: SARS-CoV-2 3_SL3base RNA
[3] = system: SARS-CoV-2 5'-UTR RNA
[4] = system: SARS-CoV-2 3_SL1+2 RNA
[5] = system: SARS-CoV-2 3_SL2 RNA
[6] = system: SARS-CoV-2 3_s2m RNA
[7] = system: SARS-CoV-2 5_SL1 RNA
[8] = system: SARS-CoV-2 3_SL1 RNA
[9] = system: SARS-CoV-2 5_SL1234 RNA
[10] = system: SARS-CoV-2 5_SL4 RNA

With `Oc1ccc(CN2CCCC2)c2cccnc12` the “1H chemical shift perturbation upon RNA addition” value [1] was 8 Hz, the “1H chemical shift perturbation upon RNA addition” value [2] was 12 Hz and the “1H chemical shift perturbation upon RNA addition” value [3] was 19 Hz.

For `CC(=O)c1ccc(NC(=O)CN2CCCC2)cc1`, the “1H chemical shift perturbation upon RNA addition” value [1] was 13 Hz, the “1H chemical shift perturbation upon RNA addition” value [4] was 13 Hz and the “1H chemical shift perturbation upon RNA addition” value [5] was 6 Hz. The “1H chemical shift perturbation upon RNA addition” value [2] was 23 Hz, the “1H chemical shift perturbation upon RNA addition” value [6] was 9 Hz and the “1H chemical shift perturbation upon RNA addition” value [3] was 2 Hz. The “1H chemical shift perturbation upon RNA addition” value [7] was 8 Hz.

`CN1CCN(c2ccc(C#N)cc2)CC1` was tested, and the “1H chemical shift perturbation upon RNA addition” value [1] was 8 Hz.

In the case of `O=C(Nc1cccnc1)c1cnn2cccnc12`, the “1H chemical shift perturbation upon RNA addition” value [1] is reported as 14 Hz.

For `OCc1cn(-c2ccc(Cl)c(Cl)c2)nn1`, the “1H chemical shift perturbation upon RNA addition” value [1] was 16 Hz, the “1H chemical shift perturbation upon RNA addition” value [8] was 1 Hz and the “1H chemical shift perturbation upon RNA addition” value [4] was 10 Hz. For the same compound, the “1H chemical shift perturbation upon RNA addition” value [5] was 6 Hz, the “1H chemical shift perturbation upon RNA addition” value [2] was 13 Hz and the “1H chemical shift perturbation upon RNA addition” value [6] was 5 Hz. The “1H chemical shift perturbation upon RNA addition” value [3] was 6 Hz, the “1H chemical shift perturbation upon RNA addition” value [7] was 11 Hz and the “1H chemical shift perturbation upon RNA addition” value [9] was 7 Hz. The “1H chemical shift perturbation upon RNA addition” value [10] was 5 Hz.

For `c1cnc(N2CCC3(CCOC3)C2)cn1` (configuration not stated), the “1H chemical shift perturbation upon RNA addition” value [1] was 2 Hz.

For `CC(=O)Nc1ccncc1C`, the “1H chemical shift perturbation upon RNA addition” value [1] was 14 Hz.

With `CC(=O)Nc1ccc2[nH]c(=O)[nH]c2c1` the “1H chemical shift perturbation upon RNA addition” value [1] was 5 Hz.

For `Cc1nccc(N2CCC(N)CC2)n1`, the “1H chemical shift perturbation upon RNA addition” value [1] was 10 Hz, the “1H chemical shift perturbation upon RNA addition” value [4] was 14 Hz and the “1H chemical shift perturbation upon RNA addition” value [5] was 10 Hz. For the same compound, the “1H chemical shift perturbation upon RNA addition” value [2] was 21 Hz, the “1H chemical shift perturbation upon RNA addition” value [6] was 10 Hz and the “1H chemical shift perturbation upon RNA addition” value [3] was 23 Hz.

With `CNc1nccc(OC)n1` the “1H chemical shift perturbation upon RNA addition” value [1] was 11 Hz.

`COc1ccc(C(=O)Nc2ccccc2F)cc1` was tested, and the “1H chemical shift perturbation upon RNA addition” value [1] was 7 Hz.

With `Cc1ccccc1OCC(=O)Nc1ccccc1` the “1H chemical shift perturbation upon RNA addition” value [1] was 4 Hz.

`N#Cc1ccc(NC(=O)c2cccs2)cc1` was tested, and the “1H chemical shift perturbation upon RNA addition” value [1] was 13 Hz and the “1H chemical shift perturbation upon RNA addition” value [2] was 14 Hz.

`O=C(Nc1ccc2ncccc2c1)c1ccccc1` was tested, and the “1H chemical shift perturbation upon RNA addition” value [1] was 7 Hz, the “1H chemical shift perturbation upon RNA addition” value [2] was 8 Hz and the “1H chemical shift perturbation upon RNA addition” value [3] was 7 Hz.

For `CCNC1CCN(c2ccncc2)CC1`, the “1H chemical shift perturbation upon RNA addition” value [1] was 6 Hz, the “1H chemical shift perturbation upon RNA addition” value [8] was 6 Hz and the “1H chemical shift perturbation upon RNA addition” value [4] was 21 Hz. For the same compound, the “1H chemical shift perturbation upon RNA addition” value [5] was 11 Hz, the “1H chemical shift perturbation upon RNA addition” value [2] was 10 Hz and the “1H chemical shift perturbation upon RNA addition” value [6] was 12 Hz. For the same compound, the “1H chemical shift perturbation upon RNA addition” value [7] was 9 Hz.

In the case of `O=C(Nc1ccc(O)cc1)c1ccc(Cl)cc1`, the “1H chemical shift perturbation upon RNA addition” value [1] is reported as 2 Hz, the “1H chemical shift perturbation upon RNA addition” value [2] is reported as 4 Hz and the “1H chemical shift perturbation upon RNA addition” value [3] is reported as 3 Hz.

`NC(=O)c1cc(N2CCCC2)ccn1` was tested, and the “1H chemical shift perturbation upon RNA addition” value [1] was 8 Hz, the “1H chemical shift perturbation upon RNA addition” value [4] was 7 Hz and the “1H chemical shift perturbation upon RNA addition” value [2] was 19 Hz. The “1H chemical shift perturbation upon RNA addition” value [6] was 8 Hz, the “1H chemical shift perturbation upon RNA addition” value [3] was 23 Hz and the “1H chemical shift perturbation upon RNA addition” value [10] was 7 Hz.

For `Cc1ccc(Nc2ncnc3[nH]ncc23)cc1`, the “1H chemical shift perturbation upon RNA addition” value [1] was 8 Hz.

For `NC(=O)c1ccnc(NC2CC=CC2)c1`, the “1H chemical shift perturbation upon RNA addition” value [1] was 17 Hz, the “1H chemical shift perturbation upon RNA addition” value [4] was 9 Hz and the “1H chemical shift perturbation upon RNA addition” value [10] was 6 Hz.

With `Cc1cc(C(=O)Nc2ccc3[nH]ccc3c2)no1` the “1H chemical shift perturbation upon RNA addition” value [1] was 6 Hz and the “1H chemical shift perturbation upon RNA addition” value [2] was 7 Hz.

`CCOC(=O)c1cc(-c2ccc(C)cc2)no1` was tested, and the “1H chemical shift perturbation upon RNA addition” value [1] was 18 Hz.
